# Source: the supplement of paper PMC12819154, “High-throughput peptide-centric local stability assay extends protein–ligand identification to membrane proteins, tissues and bacteria” (Nature Structural & Molecular Biology, 2025)
# Protein sequences, listed by entry. Tags and fused reporters are not part of them. Lines headed by an entry give the natural chain unless they say otherwise; changes in a name come on top.
# UniProt Q811B5: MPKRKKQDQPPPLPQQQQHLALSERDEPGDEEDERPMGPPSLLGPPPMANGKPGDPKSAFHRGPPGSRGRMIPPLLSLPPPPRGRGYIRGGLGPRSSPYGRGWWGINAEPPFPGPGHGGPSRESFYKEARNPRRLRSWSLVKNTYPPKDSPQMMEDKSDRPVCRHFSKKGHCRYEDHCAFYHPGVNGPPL
# UniProt Q8BH58: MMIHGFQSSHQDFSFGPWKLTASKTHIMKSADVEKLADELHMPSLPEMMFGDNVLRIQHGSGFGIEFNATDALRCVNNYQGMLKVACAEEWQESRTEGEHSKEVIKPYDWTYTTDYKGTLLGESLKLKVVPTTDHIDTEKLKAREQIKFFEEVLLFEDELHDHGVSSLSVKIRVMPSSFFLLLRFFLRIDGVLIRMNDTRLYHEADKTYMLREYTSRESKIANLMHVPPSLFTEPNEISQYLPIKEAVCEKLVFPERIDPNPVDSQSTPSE
# UniProt Q8BHX1: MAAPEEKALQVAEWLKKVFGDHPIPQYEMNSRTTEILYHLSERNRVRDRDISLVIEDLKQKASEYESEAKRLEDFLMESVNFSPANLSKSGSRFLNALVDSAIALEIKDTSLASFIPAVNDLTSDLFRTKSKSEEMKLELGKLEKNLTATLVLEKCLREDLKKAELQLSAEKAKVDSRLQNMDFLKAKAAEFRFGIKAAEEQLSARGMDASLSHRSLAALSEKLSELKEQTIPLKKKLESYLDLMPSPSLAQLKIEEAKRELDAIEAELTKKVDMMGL
# UniProt Q8BHG2: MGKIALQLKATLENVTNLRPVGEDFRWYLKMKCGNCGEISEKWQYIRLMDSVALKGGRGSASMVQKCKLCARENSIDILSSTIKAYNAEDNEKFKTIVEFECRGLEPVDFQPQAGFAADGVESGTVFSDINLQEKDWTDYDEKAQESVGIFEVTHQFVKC
# UniProt Q8BGV5: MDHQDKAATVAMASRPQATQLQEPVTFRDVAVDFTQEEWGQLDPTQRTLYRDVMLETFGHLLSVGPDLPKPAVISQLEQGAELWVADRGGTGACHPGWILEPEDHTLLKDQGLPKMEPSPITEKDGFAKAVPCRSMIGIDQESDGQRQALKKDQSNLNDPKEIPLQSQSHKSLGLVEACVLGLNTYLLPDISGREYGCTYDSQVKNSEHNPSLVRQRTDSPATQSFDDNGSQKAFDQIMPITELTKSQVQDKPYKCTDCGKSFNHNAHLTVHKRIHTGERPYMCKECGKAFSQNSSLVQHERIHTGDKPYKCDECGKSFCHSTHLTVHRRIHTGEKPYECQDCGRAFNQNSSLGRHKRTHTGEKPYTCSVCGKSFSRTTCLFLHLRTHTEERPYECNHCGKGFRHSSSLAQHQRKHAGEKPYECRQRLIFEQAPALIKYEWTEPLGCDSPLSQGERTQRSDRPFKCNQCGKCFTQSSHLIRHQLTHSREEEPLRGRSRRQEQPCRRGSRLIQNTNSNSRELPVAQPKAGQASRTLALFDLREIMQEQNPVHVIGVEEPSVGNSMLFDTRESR
# UniProt Q8BH15, whole entry: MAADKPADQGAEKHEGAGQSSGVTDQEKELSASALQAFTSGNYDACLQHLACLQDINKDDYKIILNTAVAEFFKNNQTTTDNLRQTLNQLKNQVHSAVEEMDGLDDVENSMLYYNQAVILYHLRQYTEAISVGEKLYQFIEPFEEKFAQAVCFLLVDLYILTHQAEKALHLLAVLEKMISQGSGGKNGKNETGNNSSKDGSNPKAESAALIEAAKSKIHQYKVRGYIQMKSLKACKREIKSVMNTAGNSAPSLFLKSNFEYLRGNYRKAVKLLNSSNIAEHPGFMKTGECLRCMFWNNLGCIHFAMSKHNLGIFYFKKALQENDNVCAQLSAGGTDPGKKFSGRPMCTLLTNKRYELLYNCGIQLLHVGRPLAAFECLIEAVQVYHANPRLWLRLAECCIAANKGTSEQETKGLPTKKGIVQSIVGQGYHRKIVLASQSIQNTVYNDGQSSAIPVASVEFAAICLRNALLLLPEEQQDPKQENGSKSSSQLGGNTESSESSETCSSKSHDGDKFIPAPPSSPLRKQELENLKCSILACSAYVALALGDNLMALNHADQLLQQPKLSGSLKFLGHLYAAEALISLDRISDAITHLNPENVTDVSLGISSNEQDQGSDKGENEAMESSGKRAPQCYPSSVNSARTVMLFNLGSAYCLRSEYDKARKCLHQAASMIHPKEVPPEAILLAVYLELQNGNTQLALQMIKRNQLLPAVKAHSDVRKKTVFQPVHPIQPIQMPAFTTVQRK
# UniProt Q80W37, whole entry: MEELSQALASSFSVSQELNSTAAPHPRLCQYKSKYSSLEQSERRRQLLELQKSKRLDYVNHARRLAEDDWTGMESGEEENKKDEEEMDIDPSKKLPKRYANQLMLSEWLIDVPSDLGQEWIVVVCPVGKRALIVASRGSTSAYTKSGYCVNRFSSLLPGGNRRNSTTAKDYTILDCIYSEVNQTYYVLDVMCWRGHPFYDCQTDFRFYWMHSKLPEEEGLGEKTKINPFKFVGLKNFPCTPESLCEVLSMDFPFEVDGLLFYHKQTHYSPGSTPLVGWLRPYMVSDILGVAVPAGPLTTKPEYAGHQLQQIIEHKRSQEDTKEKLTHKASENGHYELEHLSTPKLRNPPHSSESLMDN
# UniProt Q8BFR6: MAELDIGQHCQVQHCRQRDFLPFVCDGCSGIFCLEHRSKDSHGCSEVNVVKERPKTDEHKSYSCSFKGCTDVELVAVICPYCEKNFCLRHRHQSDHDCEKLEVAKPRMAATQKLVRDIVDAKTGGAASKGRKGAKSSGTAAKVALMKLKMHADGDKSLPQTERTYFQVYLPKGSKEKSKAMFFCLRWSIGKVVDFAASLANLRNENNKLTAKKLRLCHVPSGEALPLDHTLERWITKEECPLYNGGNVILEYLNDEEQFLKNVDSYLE
# UniProt Q8BHG3: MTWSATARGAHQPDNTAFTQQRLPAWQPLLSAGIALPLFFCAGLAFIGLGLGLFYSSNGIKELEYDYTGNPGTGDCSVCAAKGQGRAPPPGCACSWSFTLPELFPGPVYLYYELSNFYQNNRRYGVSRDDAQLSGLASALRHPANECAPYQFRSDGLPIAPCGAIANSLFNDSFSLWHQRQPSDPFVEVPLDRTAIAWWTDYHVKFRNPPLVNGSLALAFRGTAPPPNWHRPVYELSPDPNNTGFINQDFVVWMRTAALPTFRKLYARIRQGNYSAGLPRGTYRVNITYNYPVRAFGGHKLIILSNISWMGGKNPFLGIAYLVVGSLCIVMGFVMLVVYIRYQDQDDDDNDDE
# UniProt Q8BHL7: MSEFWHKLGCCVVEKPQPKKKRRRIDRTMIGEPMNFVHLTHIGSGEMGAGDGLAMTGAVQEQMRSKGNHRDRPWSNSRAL
# UniProt Q80XP8: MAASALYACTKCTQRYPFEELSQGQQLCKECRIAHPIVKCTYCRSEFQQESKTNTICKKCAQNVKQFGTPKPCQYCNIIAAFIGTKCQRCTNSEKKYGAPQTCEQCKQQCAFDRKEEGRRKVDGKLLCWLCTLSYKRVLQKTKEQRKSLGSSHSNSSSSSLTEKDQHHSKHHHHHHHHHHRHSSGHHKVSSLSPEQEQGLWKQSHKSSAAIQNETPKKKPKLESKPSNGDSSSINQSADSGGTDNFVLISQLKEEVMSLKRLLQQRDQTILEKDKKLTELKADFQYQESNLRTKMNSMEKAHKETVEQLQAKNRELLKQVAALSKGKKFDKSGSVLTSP
# UniProt Q8BH86: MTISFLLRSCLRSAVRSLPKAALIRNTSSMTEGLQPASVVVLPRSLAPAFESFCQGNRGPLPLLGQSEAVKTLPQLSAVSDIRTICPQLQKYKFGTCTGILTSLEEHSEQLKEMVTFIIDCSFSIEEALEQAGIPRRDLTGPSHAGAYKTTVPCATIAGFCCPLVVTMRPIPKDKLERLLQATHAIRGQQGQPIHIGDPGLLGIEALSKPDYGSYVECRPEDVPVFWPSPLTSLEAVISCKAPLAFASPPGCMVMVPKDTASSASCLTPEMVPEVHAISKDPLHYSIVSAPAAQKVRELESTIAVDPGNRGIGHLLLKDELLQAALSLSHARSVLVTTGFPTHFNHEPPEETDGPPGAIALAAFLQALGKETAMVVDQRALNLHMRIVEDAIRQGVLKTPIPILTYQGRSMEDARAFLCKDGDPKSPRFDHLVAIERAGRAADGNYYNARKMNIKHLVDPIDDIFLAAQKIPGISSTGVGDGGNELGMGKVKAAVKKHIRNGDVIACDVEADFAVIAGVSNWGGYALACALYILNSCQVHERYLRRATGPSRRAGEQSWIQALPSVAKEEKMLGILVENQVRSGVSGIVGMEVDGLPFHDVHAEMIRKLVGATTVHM
# UniProt Q80W49: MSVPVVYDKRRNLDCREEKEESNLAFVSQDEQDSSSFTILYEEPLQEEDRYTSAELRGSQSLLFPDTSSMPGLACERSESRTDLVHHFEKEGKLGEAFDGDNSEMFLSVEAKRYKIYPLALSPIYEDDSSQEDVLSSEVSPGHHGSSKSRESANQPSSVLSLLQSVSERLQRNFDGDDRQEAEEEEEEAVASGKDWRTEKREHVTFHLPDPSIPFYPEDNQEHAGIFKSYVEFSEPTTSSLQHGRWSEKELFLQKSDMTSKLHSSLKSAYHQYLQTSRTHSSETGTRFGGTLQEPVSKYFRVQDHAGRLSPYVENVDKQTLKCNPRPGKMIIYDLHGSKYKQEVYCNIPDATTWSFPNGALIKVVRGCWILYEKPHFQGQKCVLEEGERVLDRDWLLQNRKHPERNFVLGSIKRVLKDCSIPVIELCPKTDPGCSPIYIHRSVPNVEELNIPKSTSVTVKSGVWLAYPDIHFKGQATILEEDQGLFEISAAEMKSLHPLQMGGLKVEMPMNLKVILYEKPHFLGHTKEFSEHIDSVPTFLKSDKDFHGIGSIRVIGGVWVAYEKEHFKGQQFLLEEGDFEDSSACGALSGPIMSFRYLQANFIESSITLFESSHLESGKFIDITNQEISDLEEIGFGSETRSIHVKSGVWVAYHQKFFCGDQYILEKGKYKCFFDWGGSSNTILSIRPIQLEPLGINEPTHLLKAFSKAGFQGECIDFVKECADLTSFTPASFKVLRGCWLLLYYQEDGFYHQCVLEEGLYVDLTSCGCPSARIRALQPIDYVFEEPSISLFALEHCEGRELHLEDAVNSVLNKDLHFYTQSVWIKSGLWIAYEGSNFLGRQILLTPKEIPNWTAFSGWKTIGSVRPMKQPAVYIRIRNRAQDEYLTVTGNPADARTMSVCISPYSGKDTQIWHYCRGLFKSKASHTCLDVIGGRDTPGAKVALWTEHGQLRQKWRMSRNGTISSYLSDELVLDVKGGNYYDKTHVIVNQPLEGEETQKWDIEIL
# UniProt Q8BGV0: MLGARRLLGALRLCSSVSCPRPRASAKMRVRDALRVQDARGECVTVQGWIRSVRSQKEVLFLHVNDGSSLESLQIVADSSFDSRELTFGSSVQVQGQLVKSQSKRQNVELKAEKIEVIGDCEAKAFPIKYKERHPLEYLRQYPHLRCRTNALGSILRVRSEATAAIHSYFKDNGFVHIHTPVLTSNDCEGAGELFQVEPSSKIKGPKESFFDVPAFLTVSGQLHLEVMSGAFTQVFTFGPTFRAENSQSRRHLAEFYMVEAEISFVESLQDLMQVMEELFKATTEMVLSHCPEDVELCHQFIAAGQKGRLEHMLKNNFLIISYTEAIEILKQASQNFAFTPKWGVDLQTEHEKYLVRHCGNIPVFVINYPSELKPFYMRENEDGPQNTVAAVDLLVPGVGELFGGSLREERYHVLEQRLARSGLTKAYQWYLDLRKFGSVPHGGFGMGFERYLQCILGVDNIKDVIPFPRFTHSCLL
# UniProt Q8BGB2: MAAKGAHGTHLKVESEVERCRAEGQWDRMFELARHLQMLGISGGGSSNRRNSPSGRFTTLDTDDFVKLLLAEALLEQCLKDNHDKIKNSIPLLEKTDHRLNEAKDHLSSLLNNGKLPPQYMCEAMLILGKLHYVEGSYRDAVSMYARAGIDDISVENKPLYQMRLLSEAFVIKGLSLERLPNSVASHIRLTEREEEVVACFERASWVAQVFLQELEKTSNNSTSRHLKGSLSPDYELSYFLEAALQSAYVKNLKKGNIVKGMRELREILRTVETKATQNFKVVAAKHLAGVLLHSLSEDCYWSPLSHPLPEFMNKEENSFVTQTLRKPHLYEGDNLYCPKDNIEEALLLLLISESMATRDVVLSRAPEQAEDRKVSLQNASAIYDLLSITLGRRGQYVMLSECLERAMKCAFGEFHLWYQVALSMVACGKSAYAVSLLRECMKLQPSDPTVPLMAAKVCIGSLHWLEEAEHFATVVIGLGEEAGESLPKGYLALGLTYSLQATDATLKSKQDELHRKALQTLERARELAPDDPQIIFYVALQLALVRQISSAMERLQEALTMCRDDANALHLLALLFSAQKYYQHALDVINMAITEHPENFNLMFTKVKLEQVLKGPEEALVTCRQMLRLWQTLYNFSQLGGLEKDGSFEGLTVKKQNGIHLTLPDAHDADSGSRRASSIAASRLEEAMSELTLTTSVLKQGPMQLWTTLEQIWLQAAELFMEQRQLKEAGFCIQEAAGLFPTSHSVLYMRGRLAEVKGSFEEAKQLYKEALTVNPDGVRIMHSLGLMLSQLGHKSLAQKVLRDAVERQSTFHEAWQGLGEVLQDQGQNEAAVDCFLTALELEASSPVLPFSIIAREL
# This is one part of the list. Most entries show no effect beyond the scatter of the controls.
# Compound: CN[C@@H]1C[C@H]2O[C@@](C)([C@@H]1OC)n1c3ccccc3c3c4c(c5c6ccccc6n2c5c31)C(=O)NC4 [staurosporine]
# Experiment: log2 fold change of tryptic peptide abundance, ligand vs vehicle (limited proteolysis) (log2 ratio); higher = more trypsin-susceptible (destabilized)
# Details: ligand concentration: 20 uM; sample: mouse liver crude lysate; replicate design: treated separately
row,Target,log2 fold change
1,"UniProt Q811B5 (peptide sequence: DSPQMMEDK, peptide start residue: 149)",0.136
2,"UniProt Q8BGU5 (peptide sequence: SLFINHHPPGQTSR, peptide start residue: 83)",-0.219
3,"UniProt Q80Y61 (peptide sequence: LRPTVTNDR, peptide start residue: 500)",-0.0894
4,"UniProt Q8BH58 (peptide sequence: LKVVPTTDHIDTEKLK, peptide start residue: 127)",-0.153
5,"UniProt Q8BHB0 (peptide sequence: YVAQILDECR, peptide start residue: 775)",0.426
6,"UniProt Q8BHX1 (peptide sequence: AAEEQLSAR, peptide start residue: 198)",-0.354
7,"UniProt Q8BHE8 (peptide sequence: LGDQSVETK, peptide start residue: 250)",-0.658
8,"UniProt Q8BHG2 (peptide sequence: LMDSVALK, peptide start residue: 48)",0.14
9,"UniProt Q8BGV5 (peptide sequence: EIPLQSQSHK, peptide start residue: 162)",0.25
10,"UniProt Q8BGS0 (peptide sequence: APLKGPLRK, peptide start residue: 266)",-0.82
11,"UniProt Q8BHN5 (peptide sequence: AMEEMHGQCLGPSDTKPIK, peptide start residue: 82)",0.719
12,"UniProt Q8BGE6 (peptide sequence: KYSIFTEKDEILSDVASR, peptide start residue: 32)",-0.356
13,"UniProt Q811P8 (peptide sequence: SLLVSSPSTK, peptide start residue: 587)",-0.278
14,"UniProt Q80WQ6 (peptide sequence: SLHHCSVHYGR, peptide start residue: 113)",0.362
15,"UniProt Q8BH79 (peptide sequence: EEYQEDGKEAT, peptide start residue: 649)",0.481
16,"UniProt Q8BGX2 (peptide sequence: MHDCDINDDEFLHLPAHLR, peptide start residue: 185)",-0.332

row,Target,log2 fold change
1,"UniProt Q8BH15 (peptide sequence: GIVQSIVGQGYHR, peptide start residue: 419)",-0.405
2,"UniProt Q80W37 (peptide sequence: RLDYVNHAR, peptide start residue: 55)",-0.399
3,"UniProt Q80XS6 (peptide sequence: CLTHEAFTETQK, peptide start residue: 499)",0.947
4,"UniProt Q8BFR6 (peptide sequence: MHADGDKSLPQTER, peptide start residue: 150)",-0.675
5,"UniProt Q80X85 (peptide sequence: SLMAQTLEAVKR, peptide start residue: 109)",0.255
6,"UniProt Q8BHG3 (peptide sequence: GAHQPDNTAFTQQR, peptide start residue: 9)",-0.506
7,"UniProt Q8BHL7 (peptide sequence: LGCCVVEKPQPK, peptide start residue: 8)",-0.134
8,"UniProt Q8BG21 (peptide sequence: KGDAISYAR, peptide start residue: 142)",-0.0871
9,"UniProt Q80XP8 (peptide sequence: LLCWLCTLSYKR, peptide start residue: 123)",-0.17
10,"UniProt Q8BH86 (peptide sequence: AADGNYYNAR, peptide start residue: 441)",0.0965
11,"UniProt Q80W49 (peptide sequence: SYVEFSEPTTSSLQHGR, peptide start residue: 229)",-0.339
12,"UniProt Q8BGC0 (peptide sequence: EGGSDGDHPER, peptide start residue: 452)",-0.357
13,"UniProt Q8BFR4 (peptide sequence: NFNIHGTNK, peptide start residue: 250)",-0.0955
14,"UniProt Q8BGV0 (peptide sequence: WGVDLQTEHEK, peptide start residue: 343)",-0.972
15,"UniProt Q8BGB2 (peptide sequence: NSIPLLEK, peptide start residue: 88)",-0.174

# Part of the list above, bar-delimited:
row | Target | log2 fold change
9 | UniProt Q8BGV5 (peptide sequence: EIPLQSQSHK, peptide start residue: 162) | 0.25
13 | UniProt Q8BFR4 (peptide sequence: NFNIHGTNK, peptide start residue: 250) | -0.0955
